Some of these results come from one statement about several compounds together.
What follows are molecules tested on Meloidogyne spp. (assay: Meloidogyne spp. (root-knot nematode) contact activity, preventive (1 ml), cucumber seed pouch test). Settings: test solution 200 ppm; cucumber cv. Toshka seed in pouch; 3000 eggs; twelve days; number of galls per root system.
Type: in vivo

| SMILES | reduction of galling compared to the untreated control |
| --- | --- |
| O=C(NCCc1ccc(F)cc1F)c1ncccc1C(F)(F)F [A.005] | greater than 80% |
| O=C(NCCc1ccc(Cl)cc1Cl)c1ncccc1C(F)(F)F [A.029] | greater than 80% |
| O=C(NCCc1ccc(F)cc1Cl)c1ncccc1C(F)(F)F [A.016] | greater than 80% |
| O=C(NCCc1ccc(F)cc1)c1ncccc1Cl [A.041] | greater than 80% |
| O=C(NCCc1ccc(F)cc1)c1ncccc1C(F)(F)F [A.034] | greater than 80% |
| Cc1cccnc1C(=O)NCC(F)(F)c1ccccc1 [A.008] | greater than 80% |
| O=C(NCCc1ccc(Cl)cc1F)c1ncccc1C(F)(F)F [A.002, 3-Trifluoromethyl-pyridine-2-carboxylic acid [2-(4-chloro-2-fluoro-phenyl)-ethyl]-amide] | greater than 80% |
| O=C(NCCc1ccc(Br)cc1F)c1ncccc1C(F)(F)F [A.003] | greater than 80% |
| O=C(NCCc1ccc(C(F)(F)F)cc1F)c1ncccc1C(F)(F)F [A.001, 3-Trifluoromethyl-pyridine-2-carboxylic acid [2-(2-fluoro-4-trifluoromethyl-phenyl)-ethyl]-amide] | greater than 80% |

These molecules were tested on M. incognita (assay: Meloidogyne spp. (root-knot nematode) contact activity, preventive, cucumber pot drench test). Settings: 5 ml WP10 suspension at 20 ppm per pot; cucumber cv. Toshka; 3000 eggs of M. incognita; fourteen days; Zeck's gall index.
Type: in vivo

| SMILES | reduction of galling compared to the untreated control |
| --- | --- |
| O=C(NCCc1cccc(F)c1F)c1ncccc1C(F)(F)F [A.013] | greater than 80% |
| O=C(NCCc1cc(F)c(F)c(F)c1)c1ncccc1C(F)(F)F [A.019] | greater than 80% |
| O=C(NCCc1ccc(F)cc1F)c1ncccc1C(F)(F)F [A.005] | greater than 80% |
| O=C(NCCc1ccc(Cl)cc1Cl)c1ncccc1C(F)(F)F [A.029] | greater than 80% |
| O=C(NCCc1ccc(F)cc1Cl)c1ncccc1C(F)(F)F [A.016] | greater than 80% |
| Cc1cccnc1C(=O)NCC(F)(F)c1ccc(Cl)cc1Cl [A.009, N-[2-(2,4-dichlorophenyl)-2,2-difluoro-ethyl]-3-methyl-pyridine-2-carboxamide] | greater than 80% |
| O=C(NCCc1c(F)cc(F)cc1F)c1ncccc1Cl [A.020] | greater than 80% |
| Cc1ccccc1CCNC(=O)c1ncccc1C(F)(F)F [A.031] | greater than 80% |
| O=C(NCCc1ccc(F)cc1)c1ncccc1Cl [A.041] | greater than 80% |
| O=C(NCCc1ccc(F)cc1F)c1ncccc1Cl [A.006] | greater than 80% |
| O=C(NCCc1ccc(C(F)(F)F)cc1)c1ncccc1C(F)(F)F [A.033] | greater than 80% |
| O=C(NCCc1ccc(F)cc1)c1ncccc1C(F)(F)F [A.034] | greater than 80% |
| O=C(NCCc1c(F)cccc1F)c1ncccc1Cl [A.025] | greater than 80% |
| O=C(NCCc1cc(F)c(F)c(F)c1)c1ncccc1Cl [A.028] | greater than 80% |
| O=C(NCCc1c(F)cc(F)cc1F)c1ncccc1C(F)(F)F [A.011] | greater than 80% |
| O=C(NCCc1cccc(F)c1F)c1ncccc1Cl [A.022] | greater than 80% |
| O=C(NCCc1ccc(F)cc1Cl)c1ncccc1Cl [A.026] | greater than 80% |
| O=C(NCCc1ccc(Br)cc1F)c1ncccc1Cl [A.004] | greater than 80% |
| O=C(NCCc1ccc(Cl)cc1F)c1ncccc1C(F)(F)F [A.002, 3-Trifluoromethyl-pyridine-2-carboxylic acid [2-(4-chloro-2-fluoro-phenyl)-ethyl]-amide] | greater than 80% |
| O=C(NCCc1ccc(Br)cc1F)c1ncccc1C(F)(F)F [A.003] | greater than 80% |
| O=C(NCCc1ccccc1Br)c1ncccc1C(F)(F)F [A.030] | greater than 80% |
| O=C(NCCc1ccc(C(F)(F)F)cc1F)c1ncccc1C(F)(F)F [A.001, 3-Trifluoromethyl-pyridine-2-carboxylic acid [2-(2-fluoro-4-trifluoromethyl-phenyl)-ethyl]-amide] | greater than 80% |
| O=C(NCCc1cccc(Cl)c1F)c1ncccc1Cl [A.023] | greater than 80% |

What follows are molecules tested on Heterodera schachtii (assay: Heterodera schachtii (sugar beet cyst nematode) contact activity, 16-well plate immobilization). Settings: 200 ppm; approx. 500 juveniles per well; 24 hours at 25° C. in darkness.
Type: in vivo

| SMILES | nematode immobilization compared to the untreated control |
| --- | --- |
| O=C(NCCc1ccc(Cl)cc1Cl)c1ncccc1C(F)(F)F [A.029] | greater than 75% |
| O=C(NCCc1ccc(F)cc1Cl)c1ncccc1C(F)(F)F [A.016] | greater than 75% |
| O=C(NCCc1ccc(C(F)(F)F)cc1)c1ncccc1C(F)(F)F [A.033] | greater than 75% |
| O=C(NCCc1c(F)cc(F)cc1F)c1ncccc1C(F)(F)F [A.011] | greater than 75% |
| O=C(NCCc1ccc(Br)cc1F)c1ncccc1Cl [A.004] | greater than 75% |
| O=C(NCCc1ccc(Cl)cc1F)c1ncccc1C(F)(F)F [A.002, 3-Trifluoromethyl-pyridine-2-carboxylic acid [2-(4-chloro-2-fluoro-phenyl)-ethyl]-amide] | greater than 75% |
| O=C(NCCc1ccc(Br)cc1F)c1ncccc1C(F)(F)F [A.003] | greater than 75% |
| O=C(NCCc1ccc(C(F)(F)F)cc1F)c1ncccc1C(F)(F)F [A.001, 3-Trifluoromethyl-pyridine-2-carboxylic acid [2-(2-fluoro-4-trifluoromethyl-phenyl)-ethyl]-amide] | greater than 75% |

Each molecule was assayed on Heterodera schachtii (assay: Heterodera schachtii (sugar beet cyst nematode) contact activity, preventive, sugar beet seed treatment). Settings: seed treatment rate 0.6 mg AI/seed; sugar beet cv. Impulse; 500 J2; nematodes per g of root 10 days after inoculation.
Type: in vivo

| SMILES | reduction of nematode population compared to the untreated control |
| --- | --- |
| O=C(NCCc1ccc(Cl)cc1F)c1ncccc1C(F)(F)F [A.002, 3-Trifluoromethyl-pyridine-2-carboxylic acid [2-(4-chloro-2-fluoro-phenyl)-ethyl]-amide] | greater than 80% |
| O=C(NCCc1ccc(C(F)(F)F)cc1F)c1ncccc1C(F)(F)F [A.001, 3-Trifluoromethyl-pyridine-2-carboxylic acid [2-(2-fluoro-4-trifluoromethyl-phenyl)-ethyl]-amide] | greater than 80% |
